{"source": "ChEMBL document CHEMBL4483862", "about": "“Open-source discovery of chemical leads for next-generation chemoprotective antimalarials” (2018)", "tested_on": "Plasmodium berghei", "test": "Luciferase/luciferin-expressing antifolate-resistant parasites were used to infect a culture of HepG2 cells that were pre-incubated with compounds. Infected hepatocytes emit light due to the luciferase reaction. Assay results are presented as the percent inhibition of light emission compared to control. […]", "format": "functional", "conditions": "sporozoite, FFLUC_HILL_SLOPE 1.5, FFLUC_R_SQUARED 0.483, PBLUC_HILL_SLOPE 1.09, PBLUC_R_SQUARED 0.604, read-out: LUCIFERASE INFECTION ASSAY - IC50", "data": [{"smiles": "CCCCc1oc2ccccc2c1C(=O)c1cc(I)c(OCCN(CC)CC)c(I)c1", "note": "[AMIODARONE]", "values": [{"measurement": "IC50", "result": "> 4.84", "unit": "µM"}]}]}
